Data published in article PMC7968321.
No constants are given. Whether binding was seen depends on the method and setting. In cells and extracts the contact can be indirect. Some entries that bind do so weakly or less than the wild type.

Molecular target: T1, Human lemur tyrosine kinase 3 (LMTK3) (human) (UniProt Q96Q04)
T1 sequence: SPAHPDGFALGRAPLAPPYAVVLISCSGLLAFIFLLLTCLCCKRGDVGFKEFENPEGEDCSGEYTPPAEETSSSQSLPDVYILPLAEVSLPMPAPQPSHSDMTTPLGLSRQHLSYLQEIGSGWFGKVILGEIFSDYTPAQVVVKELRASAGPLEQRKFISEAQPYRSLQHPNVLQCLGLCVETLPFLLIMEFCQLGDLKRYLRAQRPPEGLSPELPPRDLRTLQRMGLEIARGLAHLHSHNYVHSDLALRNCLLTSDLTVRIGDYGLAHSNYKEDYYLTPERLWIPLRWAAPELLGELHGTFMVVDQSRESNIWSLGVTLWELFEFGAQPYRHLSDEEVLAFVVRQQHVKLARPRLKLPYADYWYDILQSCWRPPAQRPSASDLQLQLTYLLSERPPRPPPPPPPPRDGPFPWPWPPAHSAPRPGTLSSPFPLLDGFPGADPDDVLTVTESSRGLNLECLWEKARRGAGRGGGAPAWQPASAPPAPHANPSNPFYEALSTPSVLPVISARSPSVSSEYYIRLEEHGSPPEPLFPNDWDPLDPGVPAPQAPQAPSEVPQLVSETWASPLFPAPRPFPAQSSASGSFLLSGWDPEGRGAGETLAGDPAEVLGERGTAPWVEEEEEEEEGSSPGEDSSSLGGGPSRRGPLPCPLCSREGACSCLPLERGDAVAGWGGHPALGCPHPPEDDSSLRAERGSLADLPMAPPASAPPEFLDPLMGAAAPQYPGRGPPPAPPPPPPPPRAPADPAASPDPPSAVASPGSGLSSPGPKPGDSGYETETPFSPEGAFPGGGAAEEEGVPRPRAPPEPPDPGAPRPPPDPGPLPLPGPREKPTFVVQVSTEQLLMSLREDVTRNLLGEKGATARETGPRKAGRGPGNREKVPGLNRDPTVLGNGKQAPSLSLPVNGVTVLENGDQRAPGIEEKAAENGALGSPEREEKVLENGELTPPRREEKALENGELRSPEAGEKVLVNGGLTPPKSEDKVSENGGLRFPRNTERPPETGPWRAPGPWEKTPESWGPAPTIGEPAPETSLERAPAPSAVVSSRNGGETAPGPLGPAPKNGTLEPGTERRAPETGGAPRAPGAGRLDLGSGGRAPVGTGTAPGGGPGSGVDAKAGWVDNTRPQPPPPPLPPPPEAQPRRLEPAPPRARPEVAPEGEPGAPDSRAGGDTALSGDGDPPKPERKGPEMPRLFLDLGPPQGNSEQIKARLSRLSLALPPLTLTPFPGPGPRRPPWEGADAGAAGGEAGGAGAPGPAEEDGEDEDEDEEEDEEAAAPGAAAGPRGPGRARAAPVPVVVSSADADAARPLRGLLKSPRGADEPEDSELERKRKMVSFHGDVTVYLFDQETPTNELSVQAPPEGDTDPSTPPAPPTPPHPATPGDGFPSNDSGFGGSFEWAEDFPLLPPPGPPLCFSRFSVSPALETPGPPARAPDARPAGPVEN
Test: co-IP; LMTK3 or NUSAP1 immunoprecipitated from MCF7 cells stably overexpressing LMTK3; complexes immunoblotted for LMTK3 and NUSAP1

binding: binds
B1: Nucleolar and spindle associated protein 1 (NUSAP1) (protein, UniProt Q9BXS6 1-441)
chain: MIIPSLEELDSLKYSDLQNLAKSLGLRANLRATKLLKALKGYIKHEARKGNENQDESQTSASSCDETEIQISNQEEAERQPLGHVTKTRRRCKTVRVDPDSQQNHSEIKISNPTEFQNHEKQESQDLRATAKVPSPPDEHQEAENAVSSGNRDSKVPSEGKKSLYTDESSKPGKNKRTAITTPNFKKLHEAHFKEMESIDQYIERKKKHFEEHNSMNELKQQPINKGGVRTPVPPRGRLSVASTPISQRRSQGRSCGPASQSTLGLKGSLKRSAISAAKTGVRFSAATKDNEHKRSLTKTPARKSAHVTVSGGTPKGEAVLGTHKLKTITGNSAAVITPFKLTTEATQTPVSNKKPVFDLKASLSRPLNYEPHKGKLKPWGQSKENNYLNQHVNRINFYKKTYKQPHLQTKEEQRKKREQERKEKKAKVLGMRRGLILAED
